Where a name gives a salt, the structure may show the parent alone. The list shows a part of the results. No stated cut-off is given here; in the data, active = 1.25 or more and inactive = the rest. Repeats are few or missing, and single values can be far off.
What follows are compounds tested on Kcc2-LUC knock-in mouse primary cortical neurons (Kcc2 promoter reporter) (assay: Kcc2 promoter-driven luciferase activity relative to vehicle control (fold of vehicle (ratio)); higher = stronger Kcc2 promoter activation (Kcc2 expression enhancer)). Details: 100 nM; 48 h.

Compound | Kcc2 promoter-driven luciferase activity
CCOc1ccc(C(C)c2cc3c(cc2OC)OCO3)cc1 (stereo unspecified) [5-(1-(4-Ethoxyphenyl)ethyl)-6-methoxy-1,3-benzodioxole] | inactive: 0.99
COc1cc2c(c(O)c1OC)-c1c(cc(OC)c(OC)c1OC)C[C@@H](C)[C@@H](C)C2 [Schisanhenol] | inactive: 0.88
CN1c2c(nc(N)[nH]c2=O)NCC1CCNc1ccc(C(=O)NC(CCC(=O)O)C(=O)O)cc1 (stereo unspecified) [Methyltetrahydrohomofolate, MeTHHF disodium] | inactive: 1.01
COc1c2occc2cc2ccc(=O)oc12 [Methoxsalen] | inactive: 0.871
C[C@@H]1C[C@H]2OC(=O)[C@@]3(C)CCC[C@@](C)([C@@H]23)[C@@]1(O)CCc1ccoc1 [Marrubiin] | inactive: 0.87
C=C(NC(=O)C(=C)NC(=O)c1csc(C2=N[C@@H]3c4csc(n4)C4NC(=O)c5csc(n5)C([C@](C)(O)[C@@H](C)O)NC(=O)[C@H]5CSC(=N5)/C(=C/C)NC(=O)C(C(C)O)NC(=O)c5csc(n5)C3(CC2)NC(=O)[C@H](C)NC(=O)C(=C)NC(=O)C(=C)NC(=O)C(C(C)C)N[C@@H]2C=Cc3c([C@@H](C)O)cc(nc3[C@H]2O)C(=O)OC4C)n1)C(N)=O (stereo partly specified) [siomycin A] | inactive: 0.93
CC1(CO)C(O)CCC2(C)C1CCC1CC3CC12CCC3(O)COC(=O)CN (stereo unspecified) [Aphidicolin Glycinate] | inactive: 0.691
CC(C)c1cccc(O)c(=O)c1 [Beta-Thujaplicin] | inactive: 1.16
O=C(CC1(O)C(=O)Nc2c(Cl)cc(Cl)cc21)c1cccc2ccccc12 (stereo unspecified) | inactive: 0.9
COc1cc2oc3cc(=O)cc4oc(-c5ccccc5)cc(c2c2c1CC[C@@H](c1ccccc1)O2)c43 | inactive: 1
CC/C(=C(\c1ccccc1)c1ccc(OCCN(C)C)cc1)c1ccccc1 [Tamoxifen citrate] | inactive: 0.99
Nc1nc(N)c2cc(Sc3cccc(C(F)(F)F)c3)ccc2n1 [2,4-diamino-6-(5-trifluoromethylphenyl)thioquinazoline] | active: 1.28
CNC(=O)[C@@H](C)[C@H]1C(=O)/C(=C(O)/C=C/C(C)=C/[C@@H](C)[C@H]2O[C@@]3(C)O[C@H](C=C[C@@]34CO4)[C@@H]2C)C(=O)N1[C@@H]1CC[C@H](O)[C@H](C)O1 [Streptolydigin] | active: 1.32
COc1cc(/C=C(\C)c2ccc3c(c2)OCO3)cc(OC)c1OC | inactive: 0.78
COC1C(O)=C2C(=O)OC(C)(O)/C=C/C=C\C=C/C=C/C(c3ccccc3)NC(=O)/C=C/C=C/C=C/C=C/C2(C)C1O (stereo unspecified) | inactive: 0.84
COc1ccc2nc(NC(=O)C(=O)CC(=O)c3ccc(Cl)cc3)sc2c1 | inactive: 0.97
Nc1ncnc2c(C3OC(CO)C(O)C3O)[nH]nc12 (stereo unspecified) [Formycin A] | inactive: 0.92
CC1=Nc2ccccc2/C1=C\c1c(C)[nH]c2ccccc12 [(3E)-2-methyl-3-[(2-methyl-1H-indol-3-yl)methylidene]indole] | inactive: 0.69
Nc1nc(N)c(-c2cccc(C(F)(F)F)c2)c(Cc2cccc(C(F)(F)F)c2)n1 | inactive: 0.3
CN(C)C[C@H]1CC[C@@H](CN(C)C)C1=O | inactive: 0.49
O=c1[nH]c(=O)n(C2CCCO2)cc1F (stereo unspecified) [Tegafur] | inactive: 1.09
CC(=O)SC(SC(C)=O)SC(C)=O [Tris(Acetylthio)Methane] | active: 6.26
Oc1ccc2ccccc2c1N=Nc1cccc2ccccc12 [1-(1-Naphthylazo)-2-naphthol] | inactive: 1
C=C(NC(=O)C(=C)NC(=O)c1csc(C2=N[C@@H]3c4csc(n4)C4NC(=O)c5csc(n5)C([C@](C)(O)[C@@H](C)O)NC(=O)[C@H]5CSC(=N5)/C(=C/C)NC(=O)C(C(C)O)NC(=O)c5csc(n5)C3(CC2)NC(=O)[C@H](C)NC(=O)C(=C)NC(=O)C(=C)NC(=O)C(C(C)C)N[C@@H]2C=Cc3c([C@@H](C)O)cc(nc3[C@H]2O)C(=O)OC4C)n1)C(N)=O (stereo partly specified) [Siomycin A] | inactive: 0.98
CC(=O)N1CCN(c2ccc(OCC3COC(Cn4ccnc4)(c4ccc(Cl)cc4Cl)O3)cc2)CC1 (stereo unspecified) [Ketoconazole] | active: 1.26
Nc1ccn([C@@H]2O[C@H](CO)[C@@H](O)[C@@H]2O)c(=O)n1 [Cytarabine Hydrochloride] | active: 1.44

Retrieved one by one from the list above (two):
Compound | Kcc2 promoter-driven luciferase activity
COc1cc2oc3cc(=O)cc4oc(-c5ccccc5)cc(c2c2c1CC[C@@H](c1ccccc1)O2)c43 | inactive: 1
CN1c2c(nc(N)[nH]c2=O)NCC1CCNc1ccc(C(=O)NC(CCC(=O)O)C(=O)O)cc1 (stereo unspecified) [Methyltetrahydrohomofolate, MeTHHF disodium] | inactive: 1.01

— the supplement of paper PMC8551327
